# Data: the supplement of paper PMC11732987, “Enantioselective OTUD7B fragment discovery through chemoproteomics screening and high-throughput optimisation” (Communications Chemistry, 2025)
# The chains behind the UniProt entries cited, without tags or fusion partners. Where a name states a change or a piece, a line headed by the entry shows the natural chain unless it says otherwise. Residues count along the entry.
# UniProt Q9BT17: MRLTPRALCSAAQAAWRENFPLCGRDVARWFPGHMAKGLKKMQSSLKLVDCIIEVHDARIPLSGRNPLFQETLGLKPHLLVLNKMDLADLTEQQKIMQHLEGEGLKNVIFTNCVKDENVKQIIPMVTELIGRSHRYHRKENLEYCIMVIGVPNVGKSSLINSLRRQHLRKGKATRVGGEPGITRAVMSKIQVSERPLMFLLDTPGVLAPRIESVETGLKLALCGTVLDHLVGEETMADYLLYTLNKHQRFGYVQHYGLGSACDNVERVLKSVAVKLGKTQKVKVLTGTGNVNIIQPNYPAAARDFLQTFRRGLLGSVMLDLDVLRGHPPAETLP
# UniProt P52701, 79-99: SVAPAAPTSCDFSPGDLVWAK
# UniProt Q9NYA4, 744-766: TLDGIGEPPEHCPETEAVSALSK
# UniProt O75592: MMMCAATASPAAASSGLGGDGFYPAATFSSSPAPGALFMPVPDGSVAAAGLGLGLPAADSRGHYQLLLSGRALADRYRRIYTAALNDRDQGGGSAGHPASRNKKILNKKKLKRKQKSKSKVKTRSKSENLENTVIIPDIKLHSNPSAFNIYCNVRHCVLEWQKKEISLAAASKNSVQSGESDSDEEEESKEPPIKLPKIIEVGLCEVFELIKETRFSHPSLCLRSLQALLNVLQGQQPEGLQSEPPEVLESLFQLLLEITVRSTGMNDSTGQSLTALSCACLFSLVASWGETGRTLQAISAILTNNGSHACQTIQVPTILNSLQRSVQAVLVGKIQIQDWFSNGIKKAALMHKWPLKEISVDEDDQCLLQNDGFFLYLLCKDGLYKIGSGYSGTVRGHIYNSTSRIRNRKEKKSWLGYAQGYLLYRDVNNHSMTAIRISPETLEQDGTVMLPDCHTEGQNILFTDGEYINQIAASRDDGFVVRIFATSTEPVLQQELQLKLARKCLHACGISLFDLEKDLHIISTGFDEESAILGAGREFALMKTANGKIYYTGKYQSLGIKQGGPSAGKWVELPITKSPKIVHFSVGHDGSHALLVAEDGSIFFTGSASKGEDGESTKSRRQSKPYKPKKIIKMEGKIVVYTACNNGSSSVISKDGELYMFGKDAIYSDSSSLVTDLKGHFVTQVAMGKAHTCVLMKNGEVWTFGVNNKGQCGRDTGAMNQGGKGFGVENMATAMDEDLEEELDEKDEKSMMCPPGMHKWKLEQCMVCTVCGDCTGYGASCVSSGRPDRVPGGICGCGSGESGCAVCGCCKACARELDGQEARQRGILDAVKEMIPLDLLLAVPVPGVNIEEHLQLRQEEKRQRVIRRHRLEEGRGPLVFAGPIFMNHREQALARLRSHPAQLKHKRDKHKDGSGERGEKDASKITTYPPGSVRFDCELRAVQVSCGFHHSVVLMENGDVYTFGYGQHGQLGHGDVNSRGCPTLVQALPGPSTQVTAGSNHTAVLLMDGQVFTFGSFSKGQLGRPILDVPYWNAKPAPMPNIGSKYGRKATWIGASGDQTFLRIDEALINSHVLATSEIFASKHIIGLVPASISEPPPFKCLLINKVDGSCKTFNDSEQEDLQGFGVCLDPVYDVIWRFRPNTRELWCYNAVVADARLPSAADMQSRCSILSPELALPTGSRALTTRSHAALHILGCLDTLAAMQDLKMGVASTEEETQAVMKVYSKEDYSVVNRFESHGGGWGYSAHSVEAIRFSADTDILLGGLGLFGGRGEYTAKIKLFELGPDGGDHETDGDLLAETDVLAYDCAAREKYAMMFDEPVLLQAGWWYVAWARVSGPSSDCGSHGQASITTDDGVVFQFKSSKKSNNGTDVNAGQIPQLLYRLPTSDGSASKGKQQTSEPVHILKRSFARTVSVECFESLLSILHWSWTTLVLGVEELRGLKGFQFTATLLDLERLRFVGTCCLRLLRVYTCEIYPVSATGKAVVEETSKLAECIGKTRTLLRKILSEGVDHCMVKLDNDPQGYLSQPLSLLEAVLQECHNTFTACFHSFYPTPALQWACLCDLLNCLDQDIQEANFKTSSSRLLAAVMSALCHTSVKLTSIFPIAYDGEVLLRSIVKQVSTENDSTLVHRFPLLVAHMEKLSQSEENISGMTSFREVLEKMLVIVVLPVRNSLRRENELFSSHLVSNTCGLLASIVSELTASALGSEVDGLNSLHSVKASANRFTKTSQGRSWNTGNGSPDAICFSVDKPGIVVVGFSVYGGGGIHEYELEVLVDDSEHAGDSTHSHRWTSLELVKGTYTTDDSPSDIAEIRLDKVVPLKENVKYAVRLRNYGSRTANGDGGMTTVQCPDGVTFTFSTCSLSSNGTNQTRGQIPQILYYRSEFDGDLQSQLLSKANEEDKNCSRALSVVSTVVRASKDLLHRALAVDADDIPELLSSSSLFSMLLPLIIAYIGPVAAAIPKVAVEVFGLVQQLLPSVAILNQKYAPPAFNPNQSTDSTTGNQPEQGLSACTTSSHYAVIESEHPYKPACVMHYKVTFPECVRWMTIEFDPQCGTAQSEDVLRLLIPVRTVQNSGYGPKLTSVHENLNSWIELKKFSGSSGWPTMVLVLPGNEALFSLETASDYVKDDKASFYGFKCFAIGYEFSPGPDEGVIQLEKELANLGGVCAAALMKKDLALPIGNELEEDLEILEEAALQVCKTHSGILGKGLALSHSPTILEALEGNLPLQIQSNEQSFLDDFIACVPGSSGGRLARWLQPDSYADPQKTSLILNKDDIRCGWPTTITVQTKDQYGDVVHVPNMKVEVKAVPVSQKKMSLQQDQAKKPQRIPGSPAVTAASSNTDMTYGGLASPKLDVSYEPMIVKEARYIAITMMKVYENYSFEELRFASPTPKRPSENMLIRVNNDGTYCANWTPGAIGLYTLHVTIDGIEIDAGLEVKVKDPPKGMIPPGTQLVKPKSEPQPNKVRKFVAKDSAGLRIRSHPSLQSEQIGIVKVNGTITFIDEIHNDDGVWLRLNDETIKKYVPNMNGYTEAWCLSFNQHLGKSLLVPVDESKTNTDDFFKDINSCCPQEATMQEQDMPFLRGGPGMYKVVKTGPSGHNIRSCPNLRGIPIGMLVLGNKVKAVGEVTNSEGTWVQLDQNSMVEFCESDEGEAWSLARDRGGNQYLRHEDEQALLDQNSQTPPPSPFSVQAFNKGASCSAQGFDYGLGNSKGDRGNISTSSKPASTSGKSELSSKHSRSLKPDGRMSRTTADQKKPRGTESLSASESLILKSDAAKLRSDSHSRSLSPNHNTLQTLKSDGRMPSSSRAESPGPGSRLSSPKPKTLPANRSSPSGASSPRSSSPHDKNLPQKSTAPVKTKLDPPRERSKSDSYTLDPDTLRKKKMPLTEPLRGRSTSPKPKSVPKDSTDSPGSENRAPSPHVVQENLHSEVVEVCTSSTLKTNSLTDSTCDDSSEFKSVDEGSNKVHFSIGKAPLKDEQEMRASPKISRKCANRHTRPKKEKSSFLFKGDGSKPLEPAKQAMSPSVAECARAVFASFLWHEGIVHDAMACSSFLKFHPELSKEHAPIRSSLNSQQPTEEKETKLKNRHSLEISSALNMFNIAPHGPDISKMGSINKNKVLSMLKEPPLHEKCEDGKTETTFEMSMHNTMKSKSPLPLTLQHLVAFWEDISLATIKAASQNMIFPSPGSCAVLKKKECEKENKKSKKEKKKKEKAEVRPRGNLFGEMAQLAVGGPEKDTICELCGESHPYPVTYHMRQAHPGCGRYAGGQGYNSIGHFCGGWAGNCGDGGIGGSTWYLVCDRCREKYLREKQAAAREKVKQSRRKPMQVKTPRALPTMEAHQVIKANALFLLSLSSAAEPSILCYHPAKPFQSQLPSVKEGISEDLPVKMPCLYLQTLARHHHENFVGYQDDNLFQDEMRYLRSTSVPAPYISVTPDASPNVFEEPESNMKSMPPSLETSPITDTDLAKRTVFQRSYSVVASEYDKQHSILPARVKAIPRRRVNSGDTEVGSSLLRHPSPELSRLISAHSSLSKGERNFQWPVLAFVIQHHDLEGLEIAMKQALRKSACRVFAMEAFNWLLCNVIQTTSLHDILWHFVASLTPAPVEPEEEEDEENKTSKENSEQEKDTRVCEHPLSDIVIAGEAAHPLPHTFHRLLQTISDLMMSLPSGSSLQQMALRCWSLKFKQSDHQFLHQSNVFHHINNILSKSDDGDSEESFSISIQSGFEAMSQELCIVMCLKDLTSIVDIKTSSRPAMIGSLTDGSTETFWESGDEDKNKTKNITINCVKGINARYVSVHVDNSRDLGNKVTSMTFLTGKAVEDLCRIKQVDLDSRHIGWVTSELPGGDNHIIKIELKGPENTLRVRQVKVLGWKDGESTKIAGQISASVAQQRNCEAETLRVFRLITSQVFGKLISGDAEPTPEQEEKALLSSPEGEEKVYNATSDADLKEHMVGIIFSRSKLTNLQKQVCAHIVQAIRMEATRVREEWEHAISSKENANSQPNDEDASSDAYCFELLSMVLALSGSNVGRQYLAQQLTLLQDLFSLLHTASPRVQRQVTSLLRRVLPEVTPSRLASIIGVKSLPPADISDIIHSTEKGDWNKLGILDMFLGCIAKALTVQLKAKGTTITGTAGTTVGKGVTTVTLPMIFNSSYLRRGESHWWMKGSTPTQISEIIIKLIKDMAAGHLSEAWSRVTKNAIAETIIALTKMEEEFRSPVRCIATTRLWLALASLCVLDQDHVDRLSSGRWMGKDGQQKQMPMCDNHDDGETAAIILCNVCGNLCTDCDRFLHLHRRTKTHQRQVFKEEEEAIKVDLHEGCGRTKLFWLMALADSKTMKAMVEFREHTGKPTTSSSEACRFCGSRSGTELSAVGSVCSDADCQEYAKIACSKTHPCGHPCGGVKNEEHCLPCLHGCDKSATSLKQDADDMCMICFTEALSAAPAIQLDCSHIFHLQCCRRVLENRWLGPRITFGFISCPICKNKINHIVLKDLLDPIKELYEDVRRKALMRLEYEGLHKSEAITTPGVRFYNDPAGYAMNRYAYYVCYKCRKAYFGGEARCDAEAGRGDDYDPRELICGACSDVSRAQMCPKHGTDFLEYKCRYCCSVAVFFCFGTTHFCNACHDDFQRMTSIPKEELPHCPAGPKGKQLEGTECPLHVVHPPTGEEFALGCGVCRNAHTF
# UniProt Q13496: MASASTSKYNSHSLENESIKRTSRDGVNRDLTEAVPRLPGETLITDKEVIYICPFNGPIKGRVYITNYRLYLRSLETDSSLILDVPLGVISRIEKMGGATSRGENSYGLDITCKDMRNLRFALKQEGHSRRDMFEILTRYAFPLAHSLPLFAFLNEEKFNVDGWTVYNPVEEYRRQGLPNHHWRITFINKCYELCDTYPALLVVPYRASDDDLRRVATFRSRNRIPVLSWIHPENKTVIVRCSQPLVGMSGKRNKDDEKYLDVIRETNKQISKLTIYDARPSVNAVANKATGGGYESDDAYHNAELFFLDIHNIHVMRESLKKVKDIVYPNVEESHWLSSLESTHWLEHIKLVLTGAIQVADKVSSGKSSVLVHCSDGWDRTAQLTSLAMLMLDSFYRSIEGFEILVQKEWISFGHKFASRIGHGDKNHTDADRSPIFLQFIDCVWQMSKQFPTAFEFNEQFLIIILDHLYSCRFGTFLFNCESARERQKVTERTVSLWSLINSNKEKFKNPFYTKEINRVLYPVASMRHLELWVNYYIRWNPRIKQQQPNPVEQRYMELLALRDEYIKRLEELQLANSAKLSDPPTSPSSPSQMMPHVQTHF
# UniProt Q13459, 2016-2045: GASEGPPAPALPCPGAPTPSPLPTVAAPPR
# UniProt Q5VVJ2: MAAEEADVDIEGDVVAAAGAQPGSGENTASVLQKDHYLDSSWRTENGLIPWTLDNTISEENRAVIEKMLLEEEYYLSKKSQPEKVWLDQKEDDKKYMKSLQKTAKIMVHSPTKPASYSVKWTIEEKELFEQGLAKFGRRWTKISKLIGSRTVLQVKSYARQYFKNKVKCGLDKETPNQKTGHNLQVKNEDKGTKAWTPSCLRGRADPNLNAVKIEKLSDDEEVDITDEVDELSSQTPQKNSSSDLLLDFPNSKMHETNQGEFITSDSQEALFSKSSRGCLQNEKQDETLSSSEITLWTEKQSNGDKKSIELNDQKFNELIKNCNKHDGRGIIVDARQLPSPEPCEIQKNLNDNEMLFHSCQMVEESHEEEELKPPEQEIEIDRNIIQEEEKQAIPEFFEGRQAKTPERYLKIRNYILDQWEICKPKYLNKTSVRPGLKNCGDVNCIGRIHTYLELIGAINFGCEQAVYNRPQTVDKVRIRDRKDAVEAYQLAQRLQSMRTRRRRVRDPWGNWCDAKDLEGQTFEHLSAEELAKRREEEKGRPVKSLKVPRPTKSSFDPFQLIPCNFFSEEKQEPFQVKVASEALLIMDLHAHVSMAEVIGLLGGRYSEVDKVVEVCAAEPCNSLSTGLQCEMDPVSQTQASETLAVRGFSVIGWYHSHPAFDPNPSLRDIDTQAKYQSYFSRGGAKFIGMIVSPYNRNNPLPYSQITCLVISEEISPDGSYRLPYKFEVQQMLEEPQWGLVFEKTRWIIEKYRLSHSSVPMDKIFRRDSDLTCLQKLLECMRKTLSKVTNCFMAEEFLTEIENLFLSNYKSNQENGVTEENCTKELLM
# UniProt Q9NXD2, 92-115: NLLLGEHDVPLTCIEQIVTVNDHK
# UniProt Q86UW6, 1075-1097: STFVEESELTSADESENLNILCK
# The other results are listed elsewhere or left out. The data scatter; read single values as rough.
# Compound: ClCC(=O)N[C@H]1CCCc2ccccc12
# Experiment: log2 mean competition ratio of IA-DTB cysteine labelling (DMSO/compound) (log2 ratio); higher = stronger cysteine engagement by compound
# Settings: 200 µM; treatment time: 4 h; cell line lysate: HEK293T
# Description: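 IA-DTB competitive cysteine chemoproteomics in HEK293T RIPA lysate. Lysates were treated with compound 29 or 30 at 50 or 200 µM for 4 h, then IA-DTB (500 µM, 1 h), trypsin-digested, NeutrAvidin-enriched and analysed by diaPASEF. Competition ratio = intensity DMSO / intensity compound (n=4 treated, n=64 DMSO); binding: mean log2 CR ≥ 1 and p ≤ 0.05 plus QC filters. Target is the cysteine site.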
row,Target,log2 mean competition ratio
1,MTG1 C23 (UniProt Q9BT17),0.128
2,MSH6 C579 (UniProt P52701),-0.166
3,MVD C108 (UniProt P53602),0.783
4,MRPS2 C162 (UniProt Q9Y399),-0.1
5,MRPL53 C21 (UniProt Q96EL3),0.318
6,MYO1E C586 (UniProt Q12965),-0.324
7,MTMR4 C755 (UniProt Q9NYA4),-0.062
8,MTO1 C707 (UniProt Q9Y2Z2),0.183
9,MTMR14 C429 (UniProt Q8NCE2),0.0224
10,NAA20 C9 (UniProt P61599),0.0862
11,MRPL53 C49 (UniProt Q96EL3),0.145
12,MYCBP2 C1475 (UniProt O75592),0.0158
13,MYCBP2 C1497 (UniProt O75592),0.215
14,MTFMT C365 (UniProt Q96DP5),0.629
15,MTARC1 C273,-0.0364
16,MYCBP2 C2169 (UniProt O75592),0.0202
17,MYO1B C310 (UniProt O43795),-0.155
18,MTHFS C180 (UniProt P49914),0.945
19,MTERF4 C69 (UniProt Q7Z6M4),0.294

row,Target,log2 mean competition ratio
1,"MTMR1_(C170,C170,C176,C176) (UniProt Q13613)",0.13
2,MYO1B C483 (UniProt O43795),-0.508
3,MSH3 C847 (UniProt P20585),0.0509
4,MRPL18 C125 (UniProt Q9H0U6),-0.0931
5,MRPL27 C88 (UniProt Q9P0M9),-0.0113
6,MTM1 C375 (UniProt Q13496),-0.0914
7,MTREX C938 (UniProt P42285),0.111
8,MSH6 C88 (UniProt P52701),0.401
9,MYO9B C2028 (UniProt Q13459),-0.43
10,MSL2 C476 (UniProt Q9HCI7),0.543
11,MYORG C125,0.411
12,MYSM1 C822 (UniProt Q5VVJ2),0.0451
13,MRPL44 C167 (UniProt Q9H9J2),0.00828
14,MTMR10 C104 (UniProt Q9NXD2),-0.213
15,MTR C432 (UniProt Q99707),0.325
16,N4BP2 C1096 (UniProt Q86UW6),0.142
17,MTHFSD C47 (UniProt Q2M296),0.0906
18,MYH9 C1379 (UniProt P35579),-0.376

# An excerpt of these results, with tabs:
row	Target	log2 mean competition ratio
1	MTG1 C23 (UniProt Q9BT17)	0.128
16	MYCBP2 C2169 (UniProt O75592)	0.0202
